The list shows a part of the results.

Protein sequences, listed by entry. Tags and fused reporters are not part of them.
UniProt Q0JBA9, entry or part of it: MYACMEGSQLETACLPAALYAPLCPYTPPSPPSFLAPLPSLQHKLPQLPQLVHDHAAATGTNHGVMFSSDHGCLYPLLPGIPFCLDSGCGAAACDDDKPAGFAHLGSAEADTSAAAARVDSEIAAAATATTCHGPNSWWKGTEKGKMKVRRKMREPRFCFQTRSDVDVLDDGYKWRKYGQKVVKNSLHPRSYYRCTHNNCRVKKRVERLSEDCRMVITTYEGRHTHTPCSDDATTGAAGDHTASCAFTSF

The target in the experiment is OsWRKY34 (Oryza sativa, UniProt Q0JBA9 1-250). The experiment in a line: protein-binding microarray (RPBM); PBS, 2% BSA, 51.3 ng/ul salmon testes DNA, 50 uM zinc acetate, 200 nM TF, 25 C, 1 h; high values mean tight binding. The note with it: protein: recombinant; tags: N-terminal polyhistidine and DsRed monomer fusion (pET32a); label: CyDye5-dUTP incorporated in the synthesized complementary strand; 3' TTTTT single-stranded linker to array surface; dsDNA, one strand shown. Put shortly: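 Per-feature fluorescence intensity (arbitrary units), read on an Axon 4000B scanner, is the binding signal. Transcription factors carrying an N-terminal polyhistidine tag and DsRed fusion were expressed in E. coli BL21-CodonPlus and purified on Ni–NTA. A custom Agilent array, made double-stranded by primer extension with Cy5-dUTP and blocked with 2% BSA, was incubated with 200 nM protein in PBS, 2% BSA, salmon testes DNA and 50 µM zinc acetate at 25 °C for 1 h and then washed.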
For the sequence “ATGCCCATTGACTATCCCTAGTACTACTATGTGTTTGATCCGGAGTCACCTAGTGCAG”, the binding signal was 8730 fluorescence intensity (a.u.).
The value for “TGCACTCGTGCGTATGCCGTCTTATCTCCTGCATATGCCGCGGAGTCACCTAGTGCAG” was 9390 fluorescence intensity (a.u.); that for “TATGCTCACTCTTGAGAGTCCGGAACGTTGACCTTGCTATCGGAGTCACCTAGTGCAG” was 10000 fluorescence intensity (a.u.).
Consider “CCAGACAGCTTCAGTTTGCAACGTACCCAAGTAAGAAACACGGAGTCACCTAGTGCAG”, for which the binding signal was 9150 fluorescence intensity (a.u.).
As to “GATTCGATGTATTTTGTTCATATGTTCATGCTTGGGCAAGCGGAGTCACCTAGTGCAG”, the binding signal was 9010 fluorescence intensity (a.u.).
On to “GCCTAGTACATAACTCGAACCCTACTCCTATCTCCAAAATCGGAGTCACCTAGTGCAG”, for which the binding signal was 8560 fluorescence intensity (a.u.).
In the case of “CTCCTCGGCCGTATCGCCTAACTACACCACCCCATCTTCTCGGAGTCACCTAGTGCAG”, the binding signal is 11000 fluorescence intensity (a.u.).
The value for “CGTACCAAACCACAAAGTCATTACCCCGTTCATTTGTCAACGGAGTCACCTAGTGCAG” was 8680 fluorescence intensity (a.u.); that for “GTGAGATTCATCCAGATTCCTGGACGGCCAGCTCATTTCCCGGAGTCACCTAGTGCAG” was 8160 fluorescence intensity (a.u.).
For “TTTATGAGCTCATCAACTTCTTTCAAGTCCCTGTACTTGACGGAGTCACCTAGTGCAG”, the binding signal is 9860 fluorescence intensity (a.u.).
The value for “AGCTACAGTCTACCATTGTCGTTGGTCTGATCATGAGCTCCGGAGTCACCTAGTGCAG” was 8170 fluorescence intensity (a.u.); that for “TTATGTCACATTAGTGTACTCGCTCTTAATTTTCGTCTCTCGGAGTCACCTAGTGCAG” was 8250 fluorescence intensity (a.u.); that for “GCGCCGCAGCCTCCGCCACCCGCGCGCCGTAGCCGACGACCGGAGTCACCTAGTGCAG” was 8860 fluorescence intensity (a.u.).
Then “CAAGCATGCACTAATCTACCTCTCCATTTTACGTACTTGACGGAGTCACCTAGTGCAG”, with 8340 fluorescence intensity (a.u.); and “AAAAATATCTCCCGCGAGTTCCTCATGGCTTATCATAGCACGGAGTCACCTAGTGCAG”, with 9410 fluorescence intensity (a.u.).
As for “TATTATTTATAGTCCACCGCTAGCCATCGCACTCTGCAGCCGGAGTCACCTAGTGCAG”, the binding signal is 12200 fluorescence intensity (a.u.).
Then “AAACTGCAACAACCGCCACGCCAGAGTCCACCGCACGCCACGGAGTCACCTAGTGCAG”, with 8350 fluorescence intensity (a.u.); and “CTAGACTGTGCCCTCTATTTCCACTCCGGCTGACGGCATTCGGAGTCACCTAGTGCAG”, with 9600 fluorescence intensity (a.u.); and “CTTTTTTTCATGTGATTTTTCGGCTTTTCTCACTTCTTAACGGAGTCACCTAGTGCAG”, with 12900 fluorescence intensity (a.u.).
As to “ATGCATACAACTTGCATTGTTTCTTTGATGTTCCATTTGGCGGAGTCACCTAGTGCAG”, the binding signal is 8120 fluorescence intensity (a.u.).
“TGATCCGTGCCATCGTAACTATGCCTATTCAGATAAATGCCGGAGTCACCTAGTGCAG”: the binding signal is 9450 fluorescence intensity (a.u.).
Then “TAACGCCGTTTACCTTTTAACAAACGTTTTACCTTTCGTTCGGAGTCACCTAGTGCAG”, with 10400 fluorescence intensity (a.u.); and “TCTCTTATGTATTGGGCTGTGTGGGTCAAGTACGCCTCGCCGGAGTCACCTAGTGCAG”, with 8700 fluorescence intensity (a.u.); and “AAAATAGTGCTTATCCGTGCTGTGCTTAACCGCGAAATTTCGGAGTCACCTAGTGCAG”, with 9260 fluorescence intensity (a.u.).
In the case of “CACCTTTTTTTAATTTTTTGGTTTCCAATTTTTATTTTTTCGGAGTCACCTAGTGCAG”, the binding signal was 10900 fluorescence intensity (a.u.).
In the case of “CCCAACCGAACCAACTACGCGTCCGTCCGTCTCACGTGCACGGAGTCACCTAGTGCAG”, the binding signal was 9150 fluorescence intensity (a.u.).
For the sequence “ACTTTTTCCATCACATCAACCTGTCATACACAACTTTTCACGGAGTCACCTAGTGCAG”, the binding signal is 12100 fluorescence intensity (a.u.).
In the case of “GCACAGTTCACATTCAGTTGCACCTCGAGCTCTATAAATGCGGAGTCACCTAGTGCAG”, the binding signal is 10500 fluorescence intensity (a.u.).
For the sequence “CGATCGTCTCCTCCTTGCCCTTCTTGCACCGCGCGCTATACGGAGTCACCTAGTGCAG”, the binding signal was 8360 fluorescence intensity (a.u.).
Then “ATGCCTGATGGCCTCACACCGCCGCATCTTCTCGTTCTTCCGGAGTCACCTAGTGCAG”, with 8280 fluorescence intensity (a.u.); and “ATTCTCGTACACGAAAAGTCTTTTCAGCTGTCGCTTCATACGGAGTCACCTAGTGCAG”, with 9330 fluorescence intensity (a.u.); and “CCTCCGTCCCTAAATATTCGACGCCGTTGACTTTTTTAAACGGAGTCACCTAGTGCAG”, with 21700 fluorescence intensity (a.u.).
As to “GGGAGGAAAAAGGAAAAGTGGTTTAGGGTTTTGTGGATTTCGGAGTCACCTAGTGCAG”, the binding signal is 9820 fluorescence intensity (a.u.).
As to “AGACCAATCCGCATCCGCTTTTCTCTACATTGTAACTCGCCGGAGTCACCTAGTGCAG”, the binding signal is 9770 fluorescence intensity (a.u.).
The value for “TGTGATTTTTCTGTTTCTGCTACATTATATTATAACCATTCGGAGTCACCTAGTGCAG” was 9400 fluorescence intensity (a.u.).
Then “CTAACTTTTCCTTGTTTTCCACGTCTTTGGGAAGGGAGATCGGAGTCACCTAGTGCAG”, with 9710 fluorescence intensity (a.u.); and “AGCATTATCTCCTCATCATTCATCATCTCACTCAAATTCACGGAGTCACCTAGTGCAG”, with 9830 fluorescence intensity (a.u.).
Then “CGATGCAATATTGACCCATTTTTTCCCTGTTTCATTGACGCGGAGTCACCTAGTGCAG”, with 10700 fluorescence intensity (a.u.); and “CGCCGTTGTCTCCTTCCCGTCACACCCTCCTCGCCGCGACCGGAGTCACCTAGTGCAG”, with 8500 fluorescence intensity (a.u.); and “CAACTTTTCCATCACATCGTTCATATTTCAACCAAACTTCCGGAGTCACCTAGTGCAG”, with 8810 fluorescence intensity (a.u.).
For “GTTTATATTTAATACTCTATATATATATGTCTAAGGCCTTCGGAGTCACCTAGTGCAG”, the binding signal is 8260 fluorescence intensity (a.u.).
Then “CCTTCTTTACATACAAACAGAGCTCCATCTTTCTCTCTCTCGGAGTCACCTAGTGCAG”, with 8280 fluorescence intensity (a.u.).

Source of the values: PMC7819943, “Rice protein-binding microarrays: a tool to detect cis-acting elements near promoter regions in rice”.
